# Results of single-concentration screens

The chains behind the UniProt entries cited, without tags or fusion partners. Residues count along the entry.
UniProt I6X8D2, whole entry: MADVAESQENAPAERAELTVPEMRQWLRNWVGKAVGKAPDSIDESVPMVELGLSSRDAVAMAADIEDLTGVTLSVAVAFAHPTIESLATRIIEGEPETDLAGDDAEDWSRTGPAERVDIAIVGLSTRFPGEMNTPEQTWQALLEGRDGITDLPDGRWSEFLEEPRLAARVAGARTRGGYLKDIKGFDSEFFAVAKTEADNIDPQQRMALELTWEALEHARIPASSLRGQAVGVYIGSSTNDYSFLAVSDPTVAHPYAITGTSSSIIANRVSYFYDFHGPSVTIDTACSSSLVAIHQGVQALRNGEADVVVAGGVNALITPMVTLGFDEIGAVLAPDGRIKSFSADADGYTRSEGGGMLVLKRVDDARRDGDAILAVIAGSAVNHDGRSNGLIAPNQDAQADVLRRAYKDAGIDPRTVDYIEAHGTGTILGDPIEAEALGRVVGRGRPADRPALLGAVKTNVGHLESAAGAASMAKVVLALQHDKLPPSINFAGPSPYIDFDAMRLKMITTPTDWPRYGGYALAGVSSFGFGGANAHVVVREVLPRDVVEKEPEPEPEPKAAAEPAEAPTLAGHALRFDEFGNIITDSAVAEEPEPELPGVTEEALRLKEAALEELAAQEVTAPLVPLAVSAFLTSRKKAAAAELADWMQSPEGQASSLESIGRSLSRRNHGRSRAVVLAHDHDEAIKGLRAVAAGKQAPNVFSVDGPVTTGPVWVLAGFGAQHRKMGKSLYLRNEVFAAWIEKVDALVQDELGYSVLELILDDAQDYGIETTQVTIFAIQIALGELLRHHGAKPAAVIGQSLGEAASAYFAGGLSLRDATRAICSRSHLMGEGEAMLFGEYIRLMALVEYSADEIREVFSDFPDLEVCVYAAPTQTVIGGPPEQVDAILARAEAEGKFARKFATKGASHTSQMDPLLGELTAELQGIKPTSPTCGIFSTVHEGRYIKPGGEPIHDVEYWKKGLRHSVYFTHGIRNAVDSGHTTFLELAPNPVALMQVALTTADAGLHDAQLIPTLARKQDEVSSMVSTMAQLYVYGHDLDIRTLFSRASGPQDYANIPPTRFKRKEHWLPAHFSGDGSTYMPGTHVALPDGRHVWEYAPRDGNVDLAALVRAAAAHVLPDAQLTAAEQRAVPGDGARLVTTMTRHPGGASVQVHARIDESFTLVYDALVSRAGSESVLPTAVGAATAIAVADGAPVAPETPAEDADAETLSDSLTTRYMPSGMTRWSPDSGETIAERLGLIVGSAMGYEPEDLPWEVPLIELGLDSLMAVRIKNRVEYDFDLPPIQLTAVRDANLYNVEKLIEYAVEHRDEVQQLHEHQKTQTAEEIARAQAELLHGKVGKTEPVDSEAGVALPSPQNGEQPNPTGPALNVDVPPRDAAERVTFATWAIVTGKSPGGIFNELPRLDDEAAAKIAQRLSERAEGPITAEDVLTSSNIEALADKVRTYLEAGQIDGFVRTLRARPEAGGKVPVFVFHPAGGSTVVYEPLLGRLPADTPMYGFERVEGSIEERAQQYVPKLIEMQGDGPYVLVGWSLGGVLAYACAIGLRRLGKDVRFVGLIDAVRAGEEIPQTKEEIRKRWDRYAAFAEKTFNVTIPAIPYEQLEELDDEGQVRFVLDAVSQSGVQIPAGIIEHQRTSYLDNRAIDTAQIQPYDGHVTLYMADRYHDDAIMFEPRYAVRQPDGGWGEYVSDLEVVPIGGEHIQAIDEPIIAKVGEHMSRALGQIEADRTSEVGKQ
UniProt P9WNZ1, whole entry: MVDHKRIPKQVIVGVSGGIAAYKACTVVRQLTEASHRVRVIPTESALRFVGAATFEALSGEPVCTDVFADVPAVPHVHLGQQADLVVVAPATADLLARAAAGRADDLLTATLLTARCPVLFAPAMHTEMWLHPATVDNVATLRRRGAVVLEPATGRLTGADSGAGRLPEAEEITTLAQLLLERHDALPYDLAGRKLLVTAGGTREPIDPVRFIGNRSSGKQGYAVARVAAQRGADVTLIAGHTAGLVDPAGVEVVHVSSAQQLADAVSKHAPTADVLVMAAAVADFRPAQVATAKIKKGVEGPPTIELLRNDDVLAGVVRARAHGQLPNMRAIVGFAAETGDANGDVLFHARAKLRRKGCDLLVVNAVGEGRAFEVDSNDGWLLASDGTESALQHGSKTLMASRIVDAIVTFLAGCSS
UniProt P9WFT3, whole entry: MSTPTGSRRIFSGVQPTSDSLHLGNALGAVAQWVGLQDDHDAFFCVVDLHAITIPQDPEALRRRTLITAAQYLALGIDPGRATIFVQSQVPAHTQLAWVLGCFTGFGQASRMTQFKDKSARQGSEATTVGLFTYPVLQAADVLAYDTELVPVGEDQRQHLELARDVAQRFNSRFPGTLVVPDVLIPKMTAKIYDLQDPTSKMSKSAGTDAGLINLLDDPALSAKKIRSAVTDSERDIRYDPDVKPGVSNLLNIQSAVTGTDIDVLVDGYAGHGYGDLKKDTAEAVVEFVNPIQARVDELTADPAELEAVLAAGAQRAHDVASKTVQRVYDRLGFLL
UniProt A4I591, 1-473: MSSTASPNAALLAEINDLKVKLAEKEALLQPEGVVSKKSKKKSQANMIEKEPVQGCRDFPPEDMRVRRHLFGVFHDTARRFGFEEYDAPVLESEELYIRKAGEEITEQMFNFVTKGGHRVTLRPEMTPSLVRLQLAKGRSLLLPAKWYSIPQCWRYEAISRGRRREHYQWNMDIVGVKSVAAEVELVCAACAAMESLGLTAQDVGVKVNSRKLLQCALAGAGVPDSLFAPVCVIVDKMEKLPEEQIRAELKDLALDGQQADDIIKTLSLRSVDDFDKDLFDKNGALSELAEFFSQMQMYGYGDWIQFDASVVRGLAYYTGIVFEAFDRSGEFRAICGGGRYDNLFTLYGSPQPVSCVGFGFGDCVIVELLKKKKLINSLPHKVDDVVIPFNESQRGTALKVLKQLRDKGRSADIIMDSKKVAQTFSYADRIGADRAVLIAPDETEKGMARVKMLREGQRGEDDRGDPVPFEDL
UniProt Q4DA54, 1-478: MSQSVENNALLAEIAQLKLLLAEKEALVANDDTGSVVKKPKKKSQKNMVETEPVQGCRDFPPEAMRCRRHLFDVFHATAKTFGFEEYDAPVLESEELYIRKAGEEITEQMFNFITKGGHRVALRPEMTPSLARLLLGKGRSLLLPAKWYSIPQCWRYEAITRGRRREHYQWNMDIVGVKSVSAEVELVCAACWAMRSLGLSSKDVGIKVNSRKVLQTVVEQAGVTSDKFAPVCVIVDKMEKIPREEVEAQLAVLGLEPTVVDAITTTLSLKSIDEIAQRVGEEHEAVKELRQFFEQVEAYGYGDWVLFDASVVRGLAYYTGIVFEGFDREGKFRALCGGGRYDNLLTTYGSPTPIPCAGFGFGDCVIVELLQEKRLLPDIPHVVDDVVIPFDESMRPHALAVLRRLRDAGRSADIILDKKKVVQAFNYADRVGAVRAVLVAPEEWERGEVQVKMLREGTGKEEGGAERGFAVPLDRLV

A: 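Polyketide synthase Pks13, Mycobacterium tuberculosis (UniProt I6X8D2). Enzyme assay of the thioesterase domain of polyketide synthase 13; the read-out is not stated. Concentration: 30 µM. The record gives no direction; the compounds picked for IC50 retests had high values, so higher reads as stronger inhibition. Of about 67,000 compounds tested this way, about 300 (0.46%) reached 50% or more in at least one test.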
B: 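Assay of Toxoplasma gondii numbers, read through their beta-galactosidase reporter with a colour substrate. Tested at 10 µM. Higher reads as fewer parasites (inferred from which compounds were picked for retests). Size under these conditions: about 67,000 compounds, about 260 of them at 50% or above in at least one test.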
C: 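Coenzyme A biosynthesis protein CoaBC, Mycobacterium tuberculosis (UniProt P9WNZ1). Enzyme assay of CoaBC with a phosphate dye (Biomol Green) read at 650 nm. Compounds at 30 µM. Direction is inferred from only a few compounds that gave an IC50; most scored high, so higher reads as stronger inhibition. Most strong results did not repeat in a second test. Size under these conditions: about 67,000 compounds, about 40 of them at 50% or above in at least one test.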
D: 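Enzyme assay of tryptophanyl-tRNA synthetase; the read-out is not stated. Target: Tryptophan-tRNA ligase, Mycobacterium tuberculosis (UniProt P9WFT3). Tested at 10 µM. Higher most likely means stronger inhibition; the record gives no direction and few retests gave an IC50. Of about 65,000 compounds tested this way, about 64 (0.098%) reached 50% or more in at least one test.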
E: 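Histidine-tRNA ligase, Leishmania infantum (UniProt A4I591). Enzyme assay of histidyl-tRNA synthetase; the read-out is not stated. Compounds at 30 µM. The record gives no direction; compounds that gave an IC50 in retests scored well above the rest, so higher reads as stronger inhibition. The assay is labelled LdHisRS but filed under L. infantum. Of about 69,000 compounds tested this way, about 410 (0.6%) reached 50% or more in at least one test.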
F: 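Histidine-tRNA ligase, Trypanosoma cruzi CL Brener (UniProt Q4DA54). Enzyme assay of histidyl-tRNA synthetase; the read-out is not stated. Concentration: 30 µM. Higher reads as stronger inhibition (inferred: compounds with an IC50 in retests scored well above the rest). Size under these conditions: about 69,000 compounds, about 31 of them at 50% or above in at least one test.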

Each number is a percent effect as filed. The controls that fix the scale are not given in the record; negative values are as filed. This is an unselected part of the compounds tested.

{"structure": "COc1ccc(C(C)N2CCC(OC)CC2)cc1Cl", "stereo": "centres unmarked", "A": -27.37, "B": 11.57, "C": 4, "D": -4.383, "E": 23.08, "F": 2.299}
{"structure": "Cc1nn(C)c(C)c1CCn1cncc1-c1ccc2c(c1)CC(C)N2C.Cl", "stereo": "centres unmarked", "B": -10.05}
{"structure": "O=C(O)C(F)(F)F.O=C1COC2(COCCN(Cc3ccsc3)C2)CN1c1ccoc1", "stereo": "centres unmarked", "B": -1.011}
{"structure": "CC(=O)NCC(=O)N1C[C@@H](C)[C@@]2(CCN(c3ccsc3)C2=O)C1", "A": -8.077, "B": -9.065, "C": 5.25, "D": -6.255, "E": 18, "F": 5.882}
{"structure": "Cc1cc2cccc(C(=O)N3CCOC4(CNCCOC4)C3)c2o1", "stereo": "centres unmarked", "A": -2.026, "B": -10.54, "C": -1.086, "D": -2.101, "E": 8.8, "F": 2.513}
{"structure": "Cc1nn(C)c2cn(CC(=O)NC3CCSCC3)nc12", "A": -8.162, "B": 6.591, "C": -14.12, "D": 3.871, "E": 8.85, "F": 2.632}
{"structure": "CCC(=O)N1CCC(Cc2nccnc2Nc2ccccn2)CC1", "A": -15.75, "B": 0.4768, "C": 1.702, "D": -1.417, "E": -5.714, "F": 2.151}
{"structure": "Cc1nnc(NC(=O)CN2CCCC2c2c(C)nn(C)c2C)s1", "stereo": "centres unmarked", "A": 6.267, "B": 12.67, "C": -1.513, "D": -1.836, "E": 7.895, "F": 4.36}
{"structure": "c1cc(CN2CCCC3(CCN(CC4CCCO4)CC3)C2)n[nH]1", "stereo": "centres unmarked", "A": -32.48, "B": 9.291, "C": 3.589, "E": 13.86, "F": 6.533}
{"structure": "CC(=O)N(CCc1ccccc1)CC(=O)Nc1ccccc1C#N", "A": -1.146, "C": -0.369, "D": -4.045, "E": 4.839, "F": 8.046}
{"structure": "O=C(O)C(F)(F)F.c1csc(CNCC2COCc3c(-c4ccoc4)nnn3C2)n1", "stereo": "centres unmarked", "B": -17.82}
{"structure": "CCC[C@@H]1CN(S(=O)(=O)c2ccc(OC)c(OC)c2)C[C@H]1NC(C)=O", "A": 2.706, "B": -23.57, "C": 4.208, "D": 2.835, "E": 8, "F": 8.434}
{"structure": "O[C@H]1CCN(CC2CC2)[C@H]1Cc1ccncc1", "A": 6.514, "D": -2.422, "E": 11.97, "F": 7.362}
{"structure": "CCNc1ncc(C(=O)NC2CCSC2)cn1", "stereo": "centres unmarked", "A": 0.4435, "B": -5.625, "C": -2.948, "D": -2.308, "E": -8.602, "F": 4.938}
{"structure": "N#CCCCS(=O)(=O)NC(=O)c1ccccc1F", "A": -22.77, "B": 2.616, "C": -7.097, "D": -3.748, "E": 17.11, "F": 6.404}
{"structure": "CCc1cc(NC2CCS(=O)(=O)CC2)nc(N2CCCCC2)n1", "A": -22.02, "B": 14.11, "C": 7.453, "D": 1.652, "E": 12.7, "F": 0.5128}
{"structure": "Cc1nc(C)c(CC(=O)Nc2nc(C)c(C)s2)c(=O)[nH]1", "A": -12, "B": -5.004, "C": 7.417, "D": -5.304, "E": 14.68, "F": 3.529}
{"structure": "COCCN1CCN(Cc2nc3c(s2)CCCC3)[C@H]2CS(=O)(=O)C[C@H]21", "A": -31.3, "C": 3.204, "D": -2.621, "E": 29.58, "F": 8.287}
{"structure": "CCCn1nc2c(cc1=O)CN(c1ncnc3ccsc13)CC2", "A": -8.009, "B": -2.045, "C": -3.502, "D": -0.7597, "E": 83.78, "F": 15}
{"structure": "O=C(CN1CCCCC1Cn1cncn1)NC1CCN(C2CC2)CC1", "stereo": "centres unmarked", "A": -13.51, "B": -1.5, "C": -24.52, "D": -2.554, "E": 7.692, "F": -1.667}
{"structure": "CCc1noc(C(C)N2CCC(O)CC2)n1", "stereo": "centres unmarked", "A": -11.86, "B": 3.918, "C": 0.7833, "D": -8.045, "E": 12.07, "F": 1.695}
{"structure": "Cc1cc(C2CCCN2Cc2nc(-c3ccco3)no2)on1", "stereo": "centres unmarked", "A": -14.56, "B": -2.403, "C": 3.289, "D": 1.432, "E": 20.43, "F": 10.12}

From ChEMBL document CHEMBL3988442, “University of Dundee, Small-Polar-MMV Screening Library” (2021).